We go through 54 sequences from paper PMC7862700.

By UniProt entry, the sequences of proteins in these tests, tags left out. Where a name states a change or a piece, a line headed by the entry shows the natural chain unless it says otherwise.
UniProt P32519: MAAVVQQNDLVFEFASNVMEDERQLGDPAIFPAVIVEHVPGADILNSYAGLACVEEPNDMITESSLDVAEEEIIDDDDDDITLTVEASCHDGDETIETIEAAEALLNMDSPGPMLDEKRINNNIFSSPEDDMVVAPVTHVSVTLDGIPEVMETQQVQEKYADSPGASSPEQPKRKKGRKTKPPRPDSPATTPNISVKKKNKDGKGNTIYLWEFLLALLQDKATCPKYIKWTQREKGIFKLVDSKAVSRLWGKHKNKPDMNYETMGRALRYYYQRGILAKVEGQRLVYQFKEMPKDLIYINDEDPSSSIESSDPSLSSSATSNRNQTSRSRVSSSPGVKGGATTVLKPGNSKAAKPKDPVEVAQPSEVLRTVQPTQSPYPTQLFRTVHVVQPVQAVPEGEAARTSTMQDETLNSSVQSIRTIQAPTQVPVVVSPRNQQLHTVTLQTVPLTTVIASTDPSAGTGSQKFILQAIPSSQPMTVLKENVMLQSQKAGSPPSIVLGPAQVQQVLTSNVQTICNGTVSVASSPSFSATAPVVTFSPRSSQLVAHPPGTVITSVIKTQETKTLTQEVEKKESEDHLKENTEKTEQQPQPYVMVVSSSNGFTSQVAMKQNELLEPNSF
UniProt P50549: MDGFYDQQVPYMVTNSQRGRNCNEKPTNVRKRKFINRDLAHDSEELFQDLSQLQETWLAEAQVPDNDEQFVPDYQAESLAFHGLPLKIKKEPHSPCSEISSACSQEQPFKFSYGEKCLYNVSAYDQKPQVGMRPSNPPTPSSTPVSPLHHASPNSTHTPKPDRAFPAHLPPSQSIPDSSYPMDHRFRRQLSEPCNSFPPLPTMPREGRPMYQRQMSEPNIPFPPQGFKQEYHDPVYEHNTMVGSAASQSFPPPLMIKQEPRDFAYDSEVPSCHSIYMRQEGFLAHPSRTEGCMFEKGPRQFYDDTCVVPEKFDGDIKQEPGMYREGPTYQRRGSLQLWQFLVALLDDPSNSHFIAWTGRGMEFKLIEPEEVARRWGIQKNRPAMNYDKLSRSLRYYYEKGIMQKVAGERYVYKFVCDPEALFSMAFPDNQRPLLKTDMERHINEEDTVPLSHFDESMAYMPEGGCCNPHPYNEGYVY

Only a part is listed here, and it is no random draw. For some of these results: At the low end of the ranking the order means little. The list shows a part of the results. For some of these results: Construct or isoform of the protein are uncertain.

What all share (test): DAPPL (digital affinity profiling via proximity ligation, sequencing)
What all share (settings): 10 mM Tris-HCl pH 7.5, 50 mM NaCl, 1 mM DTT, 4% glycerol, room temperature, 30 min; GST-TFs on glutathione beads, 16-mer random dsDNA library, 0.1% …; high values mean tight binding; double strand, one strand shown; scale: fold enrichment (6-mer frequency, TF over GST control)

One experiment has as its target T1, ERG (UniProt P11308).
T1 sequence: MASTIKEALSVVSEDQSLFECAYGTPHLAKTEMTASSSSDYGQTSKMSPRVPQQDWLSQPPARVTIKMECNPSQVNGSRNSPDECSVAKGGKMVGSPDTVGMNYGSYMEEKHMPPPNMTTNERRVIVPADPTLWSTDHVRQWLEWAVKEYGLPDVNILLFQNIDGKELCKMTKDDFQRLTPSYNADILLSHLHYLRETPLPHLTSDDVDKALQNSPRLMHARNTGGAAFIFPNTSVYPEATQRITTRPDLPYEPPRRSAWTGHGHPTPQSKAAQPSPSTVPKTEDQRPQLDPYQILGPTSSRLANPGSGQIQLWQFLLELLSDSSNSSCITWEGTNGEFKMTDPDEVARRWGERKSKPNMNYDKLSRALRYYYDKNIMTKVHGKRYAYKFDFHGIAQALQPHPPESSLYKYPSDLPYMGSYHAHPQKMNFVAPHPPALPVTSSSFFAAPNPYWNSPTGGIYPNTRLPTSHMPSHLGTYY

Another experiment concerns the target ELF1 (UniProt P32519).
In a further experiment the target is T2, ETV4 (UniProt P43268).
T2 sequence: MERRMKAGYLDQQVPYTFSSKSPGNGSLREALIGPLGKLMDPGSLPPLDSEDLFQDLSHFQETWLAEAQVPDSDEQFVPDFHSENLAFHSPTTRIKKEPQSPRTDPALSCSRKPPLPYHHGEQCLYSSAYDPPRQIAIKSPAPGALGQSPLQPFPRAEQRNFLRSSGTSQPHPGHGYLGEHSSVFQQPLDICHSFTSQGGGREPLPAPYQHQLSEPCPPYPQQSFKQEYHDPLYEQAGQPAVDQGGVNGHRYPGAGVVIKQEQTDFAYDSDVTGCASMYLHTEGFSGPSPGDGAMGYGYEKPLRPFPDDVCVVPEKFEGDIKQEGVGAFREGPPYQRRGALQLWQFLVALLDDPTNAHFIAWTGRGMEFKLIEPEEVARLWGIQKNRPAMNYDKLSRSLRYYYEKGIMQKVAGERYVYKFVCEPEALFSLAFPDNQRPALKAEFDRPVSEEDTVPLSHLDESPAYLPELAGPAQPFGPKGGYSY

In a further experiment the target is ETV1 (UniProt P50549).
The next experiment addresses T3, ERF (UniProt P50548).
T3 sequence: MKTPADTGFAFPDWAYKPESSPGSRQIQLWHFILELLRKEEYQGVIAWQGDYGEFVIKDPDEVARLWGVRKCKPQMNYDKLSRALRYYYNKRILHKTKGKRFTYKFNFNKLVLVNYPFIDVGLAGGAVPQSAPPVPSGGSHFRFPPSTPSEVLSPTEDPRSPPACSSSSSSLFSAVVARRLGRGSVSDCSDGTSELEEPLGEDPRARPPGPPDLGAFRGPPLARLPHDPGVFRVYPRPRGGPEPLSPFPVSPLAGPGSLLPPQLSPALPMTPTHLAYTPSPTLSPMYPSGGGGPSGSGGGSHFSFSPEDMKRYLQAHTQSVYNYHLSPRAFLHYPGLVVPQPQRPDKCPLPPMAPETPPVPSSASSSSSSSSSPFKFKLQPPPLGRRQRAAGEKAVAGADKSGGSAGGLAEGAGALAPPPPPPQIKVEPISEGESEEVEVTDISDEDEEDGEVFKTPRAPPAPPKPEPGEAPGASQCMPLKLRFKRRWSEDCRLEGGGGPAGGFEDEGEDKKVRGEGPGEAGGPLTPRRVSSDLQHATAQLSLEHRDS

On to TGATAA, for which the binding signal was found to be 0.913 with ERG; 1 with ELF1; 0.997 with ETV4; 1.07 with ETV1; 0.98 with ERF.

On to TTGGCA, for which the binding signal came to 1.15 in the experiment with ERG; 1.13 with ELF1; 1.11 with ETV4; 1.18 in the experiment with ETV1; 1.19 with ERF.

For the sequence CCGGCG, the binding signal stood at 1.09 with ERG; 0.972 in the experiment with ELF1; 1.04 in the experiment with ETV4; 0.965 with ETV1; 0.982 in the experiment with ERF.

Turning to GTGCGC, the binding signal in the experiment with ERG came out at 0.945; with ELF1 it was 0.93; in the experiment with ETV4 it was 1; with ETV1 it was 0.913; in the experiment with ERF, 0.937.

As to GTTGAA, the binding signal came out at 0.829 with ERG; 0.923 with ELF1; 0.825 with ETV4; 0.841 in the experiment with ETV1; 0.875 in the experiment with ERF.

As for CCACAG, the binding signal in the experiment with ERG was 0.91; in the experiment with ELF1, 0.965; with ETV4, 0.879; with ETV1, 0.916; in the experiment with ERF, 0.988.

Turning to TGAAGC, the binding signal in the experiment with ERG turned out to be 0.956; in the experiment with ELF1, 0.952; with ETV4, 0.997; with ETV1 it was 0.953.

On to TAAGGG, for which the binding signal with ERG worked out at 0.979; with ELF1, 0.99; in the experiment with ETV4, 0.936; with ETV1 it was 1.05.

Take GTTGTC: the binding signal with ERG worked out at 0.81; with ELF1, 0.913; with ETV4, 0.856; with ETV1, 0.927; with ERF, 0.925.

Consider CCAGCT, for which the binding signal with ERG came to 0.925; with ELF1, 0.989; with ETV4 it was 0.92; with ETV1, 0.81.

Take CATAGT: the binding signal was 0.907 in the experiment with ERG, 1.01 with ELF1, 1.05 with ETV4 and 0.974 with ETV1.

On to TCAGTA, for which the binding signal with ERG was found to be 0.925; with ELF1, 1.01; with ETV4, 0.92; with ETV1, 0.861; in the experiment with ERF, 0.961.

In the case of GATGGA, the binding signal turned out to be 0.858 with ERG; 0.924 in the experiment with ELF1; 0.91 with ETV4; 0.916 with ETV1; 0.878 with ERF.

In the case of ACTTGC, the binding signal with ERG worked out at 1.41; in the experiment with ELF1, 1.37; with ETV4, 1.41; with ETV1 it was 1.37.

With CACATG, the binding signal with ERG was determined as 1.07; with ELF1, 1.16; with ETV4 it was 1.07; in the experiment with ETV1, 1.1.

As for AAATAA, the binding signal with ERG was determined as 1.37; with ELF1 it was 1.33; with ETV4, 1.24; with ETV1, 1.3.

For TGTGCA, the binding signal worked out at 1.16 in the experiment with ERG, 1.08 with ELF1, 1.15 with ETV4 and 1.05 with ETV1.

As for CGCCAA, the binding signal with ERG is 0.969; in the experiment with ELF1, 1.08; in the experiment with ETV4, 1.04; with ETV1 it was 0.95.

GACTGC: the binding signal was 0.962 in the experiment with ERG, 0.888 with ELF1, 1 with ETV4 and 0.988 with ETV1.

For CGAAGT, the binding signal in the experiment with ERG came out at 0.928; with ELF1, 0.912; with ETV4, 0.901; with ETV1, 0.967; with ERF, 0.927.

In the case of CATTGA, the binding signal with ERG is 0.896; with ELF1 it was 0.988; with ETV4, 0.965; in the experiment with ETV1, 0.962.

With GTGGCA, the binding signal is 0.97 with ERG; 0.941 with ELF1; 1.01 in the experiment with ETV4; 0.914 with ETV1; 0.866 with ERF.

Consider TCGCAT, for which the binding signal with ERG was found to be 0.982; in the experiment with ELF1, 1.04; with ETV4, 1.05; with ETV1, 0.968.

In the case of AGAAGT, the binding signal with ERG was found to be 0.999; with ELF1, 0.992; in the experiment with ETV4 it was 1.05; with ETV1, 1.05; in the experiment with ERF, 1.05.

Take ACCCAC: the binding signal with ERG is 1.1; with ELF1, 1.13; in the experiment with ETV4 it was 1.3; with ETV1, 1.17.

Regarding TGGGTG, the binding signal in the experiment with ERG was 1.01; in the experiment with ELF1 it was 1; with ETV4, 1.07; with ETV1 it was 0.858.

Take GATCAT: the binding signal with ERG is 0.961; with ELF1 it was 1.01; in the experiment with ETV4, 0.95; with ETV1, 0.958.

Turning to GAATAG, the binding signal in the experiment with ERG was found to be 0.94; with ELF1 it was 0.973; with ETV4, 0.91; in the experiment with ETV1 it was 0.995.

In the case of GGCATT, the binding signal in the experiment with ERG was 1.04; with ELF1, 0.985; with ETV4, 1.04; in the experiment with ETV1 it was 1.1.

Regarding ATAGTG, the binding signal turned out to be 0.893 with ERG; 0.857 with ELF1; 0.903 with ETV4; 0.889 with ETV1; 0.969 with ERF.

For the sequence CTGCAG, the binding signal with ERG amounted to 0.962; in the experiment with ELF1 it was 1.08; with ETV4 it was 1.15; in the experiment with ETV1, 0.996.

TGTGCG: the binding signal came to 0.934 with ERG, 0.958 with ELF1, 1.04 with ETV4 and 0.969 in the experiment with ETV1.

CGCGCG: the binding signal with ERG is 0.939; in the experiment with ELF1 it was 0.975; with ETV4, 1.03; with ETV1 it was 0.982; with ERF, 0.933.

On to CTCCAC, for which the binding signal with ERG came out at 1.37; in the experiment with ELF1, 1.38; with ETV4, 1.48; with ETV1, 1.25.

As to CAGTTC, the binding signal is 0.993 with ERG; 0.943 with ELF1; 0.962 with ETV4; 0.965 in the experiment with ETV1; 0.919 with ERF.

For the sequence TGGGTA, the binding signal with ERG amounted to 0.949; with ELF1 it was 0.99; with ETV4, 1.01; in the experiment with ETV1, 0.988.

Take CGGTAT: the binding signal stood at 1.13 with ERG, 1.05 with ETV4 and 1.02 with ERF.

Turning to GCCTAG, the binding signal stood at 0.925 with ERG, 0.974 with ELF1, 0.942 with ETV4 and 0.908 in the experiment with ETV1.

With AGTGGT, the binding signal was determined as 1.06 with ERG, 1.06 with ETV4 and 1.14 with ERF.

Turning to GTTTTG, the figures for the binding signal with ERG, with ETV4 and with ERF were 1.25, 1.23 and 1.25, respectively.

For GATGTC, the values for the binding signal with ERG, in the experiment with ETV4 and with ERF were 1.41, 1.39 and 1.29, respectively.

Consider CATTAA, for which the binding signal was determined as 0.963 in the experiment with ERG, 1.03 in the experiment with ETV4 and 1.1 with ERF.

Turning to GCAGCT, the binding signal in the experiment with ERG came out at 1.02; with ETV4 it was 1.06; with ERF, 0.94.

Take ATTTGC: the figures for the binding signal with ERG, with ETV4 and in the experiment with ERF were 1.32, 1.31 and 1.32, respectively.

As for TTTCAT, the results for the binding signal in the experiment with ERG, with ETV4 and with ERF were 1.15, 1.15 and 1.25, respectively.

In the case of TTCCCA, the binding signal in the experiment with ERG worked out at 1.3; with ETV4, 1.22; in the experiment with ERF, 1.24.

In the case of CAAAAG, the binding signal was determined as 0.971 with ERG, 0.937 in the experiment with ETV4 and 0.963 with ERF.

For the sequence GTAACC, the binding signal in the experiment with ERG is 0.984; in the experiment with ETV4, 1.1; with ERF, 1.11.

With GATACC, the values for the binding signal with ERG, with ETV4 and with ERF were 0.956, 1.01 and 0.868, respectively.

For CGCACT, the values for the binding signal with ERG, with ETV4 and in the experiment with ERF were 1.21, 1.26 and 1.21, respectively.

As for TACGGT, the binding signal with ERG came to 1.02; with ETV4, 1.01; in the experiment with ERF it was 0.971.

On to ACCGGC, for which the values for the binding signal with ERG, with ETV4 and with ERF were 1.13, 1.07 and 0.992, respectively.

For the sequence TGCATC, the binding signal with ERG turned out to be 1.43; with ETV4, 1.47; with ERF, 1.4.

With TCGTCC, the binding signal with ERG turned out to be 0.961; in the experiment with ETV4, 1.03; with ERF, 0.994.
